Source: patent US20210069339A1, “CNP PRODRUGS” (ASCENDIS PHARMA GROWTH DISORDERS A/S, priority 2015, published 2021)
Not every detail of the peptide structures is certain; ends, links or a residue may be inferred.

System: wild-type FVB male mice
Assay: Growth study in FVB mice after 5 weeks treatment
Assay type: in vivo
Conditions: 50 nmol/kg/d, d 35
[1] = continuous subcutaneous infusion
[2] = daily subcutaneous bolus injection

CC[C@H](C)[C@@H]1NC(=O)[C@H](CCCNC(=N)N)NC(=O)[C@H](CC(=O)O)NC(=O)[C@H](CC(C)C)NC(=O)[C@H](CCCCN)NC(=O)[C@H](CC(C)C)NC(=O)CNC(=O)[C@H](Cc2ccccc2)NC(=O)[C@@H](NC(=O)CNC(=O)[C@H](CCCCN)NC(=O)[C@H](CO)NC(=O)[C@H](CC(C)C)NC(=O)CNC(=O)[C@H](CCCCN)NC(=O)[C@H](CCCCN)NC(=O)[C@H](CC(N)=O)NC(=O)[C@H](C)NC(=O)CNC(=O)[C@H](CCCCN)NC(=O)[C@H](Cc2ccc(O)cc2)NC(=O)[C@H](CCCCN)NC(=O)[C@H](CCCNC(=N)N)NC(=O)[C@H](C)NC(=O)[C@H](CC(N)=O)NC(=O)[C@@H]2CCCN2C(=O)[C@H](Cc2c[nH]cn2)NC(=O)[C@H](CCC(=O)O)NC(=O)[C@H](CCC(N)=O)NC(=O)[C@@H](N)CC(C)C)CSSC[C@@H](C(=O)O)NC(=O)CNC(=O)[C@H](CC(C)C)NC(=O)CNC(=O)[C@H](CO)NC(=O)[C@H](CCSC)NC(=O)[C@H](CO)NC(=O)CNC1=O [CNP-38]
right femur length compared to vehicle treated animals [1]: 107.5% | right tibia length compared to vehicle treated animals [1]: 112.2% | right femur length compared to vehicle treated animals [2]: 105.6% | right tibia length compared to vehicle treated animals [2]: 104.0%
